# About 1,400 (4.5%) of roughly 31,000 sequences were called active.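 Rule for the calls: active = median seed-adjusted z-score above 1 or below -1; inactive = the rest.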 Some of the results follow.
# Experiment: Novel Modifiers of Survival Motor Neuron (SMN) Protein: Gene Identification via Genome-wide siRNA Screen;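 note: luminescence tracks full-length SMN protein made from the SMN2 reporter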
# Details: HEK293T SMN2-luciferase reporter, siRNA knockdown, 72 h; actives lie on both sides
# In short: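 Luciferase signal, proportional to full-length SMN made from an SMN2 cDNA reporter in stable HEK293T cells, was read 72 h after siRNA reverse transfection. Values were expressed as MAD scores after non-targeting-control normalization and log10 conversion; seed analysis flagged off-targets.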
row,Sequence,median seed-adjusted z-score
1,GUAAUUAGCUCAAACAAAATT against GNG7,inactive: -0.205
2,GUAACUUCCCUGAUCCAGATT against YOD1,inactive: 0.216
3,GGAGGCUCGUCACCAACUUTT against DERL3,inactive: 0.043
4,AGGCCAUGAUUCGCCCAAATT against NGFR,inactive: -0.0846
5,GAAGGUUGAUGACCGAUUUTT against INPP5F,inactive: 0.118
6,CAGCGAUUGGUGUGACAAATT against STX16,inactive: -0.569
7,GGUUAAUAGUGAUAGUUGATT against TMEM1,inactive: -0.191
8,GGAUUGGAUUAGAUGCAAATT against DGKH,inactive: 0.13
9,GCUUUCACCUGAUAGAUCATT against MTF1,inactive: -0.709
10,CUACGACAAGGAACAGACATT against CA4,inactive: 0.0549
11,UGUACGACCUUGUAUCGGATT against KCNN1,inactive: -0.347
12,AGAUUUGACGUGUCCAUUUTT against RFPL1,inactive: 0.195
13,GAACUGUGCAAAUACCACATT against IFNAR2,inactive: -0.219
14,CCUUCGACCCAUACUAUUATT against SCN10A,inactive: -0.401
15,GCGAGUUGUUUCUAUAGUATT against GPR22,inactive: 0.705
16,CAACAGCCUUCAGUCCGUGTT against GP9,inactive: -0.88
17,CGCAAACAGUGCAACCACATT against PPP2R5B,inactive: 0.237
18,GAACUGCCCUGAAGAUAUUTT against ERO1LB,inactive: 0.565
19,GGAAGGACUUUGUCAAUAATT against AFG3L2,inactive: 0.117
20,CCGCUCUACGUGUACCUAUTT against GMPR2,inactive: 0.232
21,GCCCAGAAGAGGUCACCUATT against CYP4F8,inactive: 0.756
22,CCCUGGUCUUCAUGGAUGATT against GCAT,inactive: 0.672

# Look-ups from the entries so far.
# median seed-adjusted z-score with CCCUGGUCUUCAUGGAUGATT against GCAT is entered as inactive: 0.672
# median seed-adjusted z-score with GGAGGCUCGUCACCAACUUTT against DERL3 is entered as inactive: 0.043
# median seed-adjusted z-score with CAACAGCCUUCAGUCCGUGTT against GP9 is entered as inactive: -0.88
# median seed-adjusted z-score with GAACUGUGCAAAUACCACATT against IFNAR2 is entered as inactive: -0.219

# Further results:

row,Sequence,median seed-adjusted z-score
1,CCUCAUGCACUGUUGAUUATT against IL6ST,inactive: -0.518
2,UGAUUCUUGUGGUUCGAAATT against PTRH2,inactive: 0.0467
3,UGGACAGCCUGUCAACUUATT against NXPH3,inactive: 0.056
4,GGGACACGCUAAAAGGAGATT against GNB4,inactive: 0.015
5,ACCGAGUUCAGCUCCGUAATT against KCNK7,inactive: 0.0523
6,GUGGUGCAGUUUUUCGUAATT against THOC2,active: -1.22
7,AGUCCCUCAUUAUCAUCAATT against LRRC15,inactive: -0.723
8,CGGUGGAUUCUGAAAUGCATT against KRT35,inactive: -0.1
9,CAGUCUACCUGUUUGACCATT against LMTK2,inactive: -0.565
10,GUCGUGUGAUUGAAGCCUATT against MUC4,inactive: 0.128
11,CGGCCGGGAGUUUUUCGUATT against DDAH2,inactive: -0.301
12,CACUAUCAGUUGGAACAGATT against CD36,inactive: -0.000845
13,GGUGUUAACCAAACCGUUATT against SEPHS2,inactive: -0.392
14,AGACCAUGAUGGGCAUAGATT against B3GALT5,inactive: 0.144
15,GCCCUGUUUUUAUACACUUTT against DDX58,inactive: -0.113
16,GUAAGCUAAAUGUAUCUUATT against GSG2,inactive: 0.804
17,CAAGGUCAAGUGCGAGAAATT against MAFB,inactive: 0.674
18,GUGUCGAUAUUGUCAUGAATT against TPT1,inactive: 0.236
19,GGACCUCAGGGAUUAAUGATT against FOLR3,inactive: 0
20,GCAGGAUUGAAGGAGUUCATT against ERAF,inactive: 0.0453
21,CGCGCCUCAUUAAACCAAATT against CSK,inactive: 0.993
22,GAUAUACCCUGGAAAGUCUTT against CCNA2,inactive: 0.136

row,Sequence,median seed-adjusted z-score
1,GGAUACAAGUGUCGAGGUUTT against PXDNL,inactive: -0.186
2,CCAAGUUUUGCUCCACAAATT against ZNF274,inactive: 0.452
3,GCCGAAGACUAAUCAUUGUTT against IL18R1,inactive: -0.206
4,CAGAAGCUUUAUGAACGAATT against SAP30BP,inactive: -0.257
5,GAAUCCUGAUGGGUAUGAATT against CPD,inactive: -0.198
6,GAUUCGACAAGGCAAUACATT against RDX,inactive: 0.123
7,UGUUCAUUCUGGUACCACATT against STYX,inactive: 0.694
8,GCUUGUCGAUAUAUAGUAUTT against DCP1A,inactive: 0.361
9,GGAGUACGCUGAAGAAGGUTT against RECQL5,inactive: 0
10,CAGCAGACCUCAUUCCCUUTT against BEST4,inactive: -0.207
11,GCUGGAUCAUAUACAUGCATT against CNTN6,inactive: 0
12,GCUUUGAAACUACAGAUGATT against HNRNPA3,inactive: 0.915
13,GGAGUGCAGUCAUCACGUUTT against NMI,inactive: 0.982
14,GGCUGGCUGAUAAAUUGUUTT against ZNF778,inactive: 0.0459
15,CAGGUACUCUAGAUGCUGATT against GPR179,inactive: -0.513
16,CCUCUUCCGACAUCAGAAATT against ZNF275,inactive: 0.315
17,CCCACCAUGUUACAAGACATT against POLR2G,active: -4.19
18,CAGUCCAGAUCGUCAACAATT against PTOV1,inactive: 0.115
19,CAAGAAAGGUAGAGAAUCATT against ZSCAN21,inactive: 0.687
20,CCGGAUCACCUGUUUGAAATT against PSMB3,inactive: -0.725
21,GGCUUUUACCCGCACCAGATT against LGI4,inactive: -0.239
22,CCAUCGGUGUUGACUUUAATT against RAB15,inactive: -0.616

row,Sequence,median seed-adjusted z-score
1,GGAUCGAAUGGUUCAGGUUTT against OSBPL9,inactive: -0.958
2,AGAAGCUUCUAAUAAAUUATT against NKX2-1,inactive: 0.185
3,GUAUCUGGAUAGUCGUAAATT against SYPL1,inactive: -0.457
4,GCAACGUGCAGAUAGUCAATT against ITIH3,inactive: 0
5,CCAGUACCAAAGAUAAAGATT against SLC16A10,inactive: -0.205
6,GACCCAGUCUAUUAAAGAATT against BRCA1,inactive: -0.0302
7,GAUUGUUUCGGGUAUUUAUTT against HMX2,inactive: -0.547
8,CCUCAACCUCGAUCAAGUATT against CSF1R,inactive: 0.38
9,GGAUCCUAAGCUUUGAUAATT against HPR,inactive: 0.237
10,GGUAUAAUCCAGUUACCAATT against CPD,inactive: -0.198
11,GACUGGAUCCCAACGAUUATT against PCDHA13,inactive: -0.624
12,GGAAUACCUCAAUAGCAUUTT against SMARCA4,inactive: 0.223
13,CUGUUCUCCUUAAAACGAATT against RBM34,inactive: 0
14,GCACCUUCCUAGUCACUCATT against HSD17B8,inactive: 0.411
15,CCAGAGCAAAGGCUAUGAATT against ZNF350,inactive: 0.133
16,GGGUCACAGAGGUCGAUAUTT against PDILT,inactive: -0.0994
17,CACUACUAAAAACCUAAAATT against EFHD2,inactive: 0.874
18,GAGCAAUAGGAUUUUAAUATT against SLC39A5,inactive: -0.311
19,GAUCUAACGUGGUUUCACATT against B3GALT6,inactive: 0.169
20,GAGCCCAUCCUGACCUACATT against KCNC4,inactive: -0.433
21,GCUAGUCACAAUGCAGAUATT against RAB7A,inactive: 0.169
22,GCAGAUGCAUAUUAUGAAATT against IMPA1,inactive: -0.295

row,Sequence,median seed-adjusted z-score
1,CUUUCAACGAAGUCUAAAATT against ABCA5,inactive: -0.376
2,GGCUGGACAGUAAUUCAGATT against ANGPTL4,active: 1.37
3,GGGUGAAAACAAGUCUGAATT against POU1F1,inactive: 0.5
4,CAGCAGUUCUUUGGAUUAATT against TAC1,inactive: 0.0499
5,AGAUGGAAGCGAAAACUGATT against NFATC1,inactive: 0.00712
6,UCUGCAUACUGCAAUCUGATT against RASL10B,inactive: -0.377
7,CUUGCUCCGUGAUGUCUUUTT against BID,inactive: 0.342
8,CAUUCGGAUUUAUGACAGUTT against NMT2,inactive: 0.494
9,CUAAAUACAUUUGAAGUCATT against DCTN6,inactive: 0.211
10,GCCUUAUUGUUACAUGGUUTT against SLC19A2,inactive: -0.679
11,GCCCGUUCCAAGUCUGUGATT against USP21,inactive: 0.248
12,CAUCGUCUCUUACUGGUUUTT against CPEB4,inactive: -0.53
13,AGAGAGUGGUUUUUCCUCCTT against WWP2,inactive: -0.685
14,GGACCAACAACUUCAUCAUTT against GGT7,inactive: 0.135
15,GCAAUUUGCUGUUGCCGAATT against RHBDD1,inactive: 0.00277
16,AGAACUACACGGAGAAGUUTT against MMP15,inactive: -0.0489
17,CCUCUAAACUGGUACCGAATT against EPHX2,inactive: 0
18,GGUACUCCAUAUACAGGUATT against GART,inactive: -0.414
19,CGCUUUGCUUCGUUGUUCATT against NR1D1,inactive: -0.301
20,GCAUCAGCGUGCUCUUGUATT against SLC8A3,inactive: -0.0434

# Reference: PubChem BioAssay AID1347426 (Functional Genomics Laboratory (NCATS/FGL), 2020)
